{"source": "patent US20220128557A1", "about": "“[…] METHODS FOR REAL-TIME CELL MONITORING” (PHENOFAST LTD., priority 2019, published 2022)", "test_system": "E. coli cells", "test": "Real-time diffraction grating monitoring of bacterial growth with antibiotic (sucrose-coated gratings)", "assay_type": "cell-based", "note": "At least one structure is not confirmed: it was looked up by name or label, or the drawing left a doubt.", "data": [{"smiles": "CN[C@@H]1[C@@H](O)[C@@H](O[C@@H]2[C@@H](O)[C@H](O[C@H]3O[C@H]([C@@H](C)O)[C@@H](O)[C@H](O)[C@H]3N)[C@@H](N)C[C@H]2N)OC[C@]1(C)O", "note": "[G418]", "values": [{"measurement": "bacterial growth (diffraction intensity shift over time)", "setting": "2.5 μg added after 60 min growth, FIG. 7B", "value": "did not significantly inhibit bacterial growth"}, {"measurement": "bacterial growth (diffraction intensity shift over time)", "setting": "5.0 μg added after 60 min growth, FIG. 7C", "value": "completely inhibited bacterial growth"}, {"measurement": "bacterial growth (diffraction intensity shift over time)", "setting": "7.5 μg added after 60 min growth, FIG. 7D", "value": "completely inhibited bacterial growth"}]}]}
